Assay results taken from patent US20100034772A1, “COMPOSITIONS AND METHODS FOR IMMUNOTHERAPY” (priority 2006, published 2010).

Test system: NK cells / Ge-con target cells
Test: 51Chromium release assay: lysis of Ge-con melanoma target cells by isolated NK cells
Assay type: cell-based, human
Conditions: TKD 2 μg/ml plus IL-2 5 days; SAHA 10 μM 20 h; interaction p=0.0003; especially at lower effector:target ratios; FIG. 10B
Description: The human melanoma cell line Ge, the Ge-Hsp70 and Ge-con sublines derived therefrom (clones Ge-Hsp70-A, Ge-Hsp70-C, Ge-TCR-C, and Ge-GFP-B) (15), mouse fibroblast L cells, and transfected L cells were maintained in NaHCO3-buffered DMEM supplemented with 10% FCS (Biochrom, Berlin, Germany), 2 mM L-glutamine, 1 mM sodium pyruvate, 50 μM 2-mercaptoethanol and antibiotics (100 U/ml penicillin, 100 μg/ml streptomycin) (Sigma) in Petri dishes for tissue culture (Sarstedt, Nümbrecht, Germany) at 37° C. in a 10% CO2 atmosphere. Human erythroleukemia K562 and mouse lymphoma YAC-1 cells were maintained under the same conditions in Petri dishes for suspension cells (Sarstedt). To induce MICA and MICB expression, Ge cells were cultured in DMEM with 10 μM of the histone deacetylase inhibitor suberoylanilide hydroxyamic acid (SAHA) 20 h before the tests (24). L cells were co-transfected by electroporation with 30 μg of the cosmid […] (25) containing the MIC3 gene of the rhesus macaque (Macaca mulatta) which is orthologous to human MICA, and with 1 μg of the dsRED vector (Clontech, Mountain View, USA), which confers resistance to geneticin (Invitrogen, Karlsruhe, Germany). […] MICA mRNA expression was analyzed by Northern blot and cell surface expression by flow cytometry. […] Spontaneous release was determined by incubation of target cells in the absence of effector cells. […]

SMILES: O=C(CCCCCCC(=O)Nc1ccccc1)NO [SAHA, suberoylanilide hydroxyamic acid]
- killing of Ge-con target cells: combination of TKD treatment of NK cells and SAHA treatment of target cells: acted synergistically
